Test results taken from PMC10404622.
For at least one entry, the source does not settle the construct or the ends of the probe. At least one result comes from cells or an extract, where the contact may be indirect. A negative result means that nothing was seen under these conditions.

Chains of the proteins cited; added tags and fusions are not shown. Lines headed by an entry give the natural chain unless they say otherwise; changes in a name come on top.
UniProt P08621, whole entry: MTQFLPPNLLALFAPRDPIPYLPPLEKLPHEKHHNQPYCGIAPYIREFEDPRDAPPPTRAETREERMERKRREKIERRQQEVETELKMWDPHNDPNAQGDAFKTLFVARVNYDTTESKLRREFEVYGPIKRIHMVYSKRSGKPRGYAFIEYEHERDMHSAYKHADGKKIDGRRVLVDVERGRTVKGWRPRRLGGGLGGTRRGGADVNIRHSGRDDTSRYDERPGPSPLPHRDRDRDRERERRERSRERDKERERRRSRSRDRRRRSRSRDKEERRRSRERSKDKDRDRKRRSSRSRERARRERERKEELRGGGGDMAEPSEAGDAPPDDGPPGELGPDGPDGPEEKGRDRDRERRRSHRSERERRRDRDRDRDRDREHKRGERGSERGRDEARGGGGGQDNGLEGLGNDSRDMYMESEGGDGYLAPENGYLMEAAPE
UniProt P09234, whole entry: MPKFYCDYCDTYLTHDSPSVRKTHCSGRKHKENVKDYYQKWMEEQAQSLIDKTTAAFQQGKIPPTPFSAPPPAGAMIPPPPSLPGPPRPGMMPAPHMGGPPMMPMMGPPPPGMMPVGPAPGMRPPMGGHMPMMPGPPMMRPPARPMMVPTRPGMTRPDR

Legend:
[1] = target: U1-70K (HeLa NE) (human (HeLa)) (UniProt P08621); test: pull-down; details: protein in an extract, label: 3'-biotin, single-stranded DNA
[2] = target: U1C (HeLa NE) (human (HeLa)) (UniProt P09234); test: pull-down; details: protein in an extract, label: 3'-biotin, single-stranded DNA

Row | Sequence | binding result ([1]; indirect via U1 snRNA) | binding result ([2]; indirect via U1 snRNA) | binding result ([1]; U1 snRNA still captured) | binding result ([2]; U1 snRNA still captured)
1 | CAGGTAAGTAT [oligo 2 (11 nt)] | binds | binds | – | –
2 | GGTATCTCCCCTGCCAGGTAAGTAT [oligo 3 (25 nt)] | – | – | no binding | no binding
